Test results as given in PMC7594058.

By UniProt entry, the sequences of proteins in these tests, tags left out. Where a name states a change or a piece, a line headed by the entry shows the natural chain unless it says otherwise. Residues count along the entry.
UniProt P03083: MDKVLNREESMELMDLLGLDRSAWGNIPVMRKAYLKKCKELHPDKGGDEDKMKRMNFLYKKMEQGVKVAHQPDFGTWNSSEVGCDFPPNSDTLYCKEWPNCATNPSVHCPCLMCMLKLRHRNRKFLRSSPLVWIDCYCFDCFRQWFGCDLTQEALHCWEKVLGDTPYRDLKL
UniProt P30153: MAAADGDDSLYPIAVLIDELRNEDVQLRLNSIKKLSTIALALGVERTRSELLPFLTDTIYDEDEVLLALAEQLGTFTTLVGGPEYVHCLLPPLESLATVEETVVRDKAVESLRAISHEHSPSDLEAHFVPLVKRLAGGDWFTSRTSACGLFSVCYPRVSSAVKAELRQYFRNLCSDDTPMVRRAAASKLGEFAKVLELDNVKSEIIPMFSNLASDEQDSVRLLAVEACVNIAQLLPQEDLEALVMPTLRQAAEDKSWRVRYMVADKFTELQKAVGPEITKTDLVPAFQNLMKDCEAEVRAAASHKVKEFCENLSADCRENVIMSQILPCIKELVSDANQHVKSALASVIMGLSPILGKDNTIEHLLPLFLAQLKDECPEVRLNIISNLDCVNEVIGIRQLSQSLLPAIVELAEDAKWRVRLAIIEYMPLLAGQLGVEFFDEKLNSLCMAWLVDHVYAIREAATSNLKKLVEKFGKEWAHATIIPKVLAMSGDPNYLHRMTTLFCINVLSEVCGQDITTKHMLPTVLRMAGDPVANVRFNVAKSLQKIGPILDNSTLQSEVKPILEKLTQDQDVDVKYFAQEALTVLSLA
UniProt Q14677: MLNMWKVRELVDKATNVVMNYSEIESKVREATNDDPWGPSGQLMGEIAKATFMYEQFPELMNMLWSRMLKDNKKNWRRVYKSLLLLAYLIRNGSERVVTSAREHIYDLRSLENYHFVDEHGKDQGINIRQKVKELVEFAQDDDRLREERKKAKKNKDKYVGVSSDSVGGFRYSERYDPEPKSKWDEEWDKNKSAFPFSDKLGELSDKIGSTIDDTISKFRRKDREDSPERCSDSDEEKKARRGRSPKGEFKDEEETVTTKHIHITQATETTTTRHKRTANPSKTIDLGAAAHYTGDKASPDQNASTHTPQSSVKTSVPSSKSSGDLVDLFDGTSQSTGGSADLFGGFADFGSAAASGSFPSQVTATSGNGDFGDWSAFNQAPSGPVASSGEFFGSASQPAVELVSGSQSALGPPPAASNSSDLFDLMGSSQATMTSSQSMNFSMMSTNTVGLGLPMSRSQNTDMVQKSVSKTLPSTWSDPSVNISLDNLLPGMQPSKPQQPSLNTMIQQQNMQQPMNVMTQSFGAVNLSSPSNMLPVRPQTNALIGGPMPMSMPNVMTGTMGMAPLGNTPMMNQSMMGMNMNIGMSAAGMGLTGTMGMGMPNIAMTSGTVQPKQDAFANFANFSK
UniProt P51784: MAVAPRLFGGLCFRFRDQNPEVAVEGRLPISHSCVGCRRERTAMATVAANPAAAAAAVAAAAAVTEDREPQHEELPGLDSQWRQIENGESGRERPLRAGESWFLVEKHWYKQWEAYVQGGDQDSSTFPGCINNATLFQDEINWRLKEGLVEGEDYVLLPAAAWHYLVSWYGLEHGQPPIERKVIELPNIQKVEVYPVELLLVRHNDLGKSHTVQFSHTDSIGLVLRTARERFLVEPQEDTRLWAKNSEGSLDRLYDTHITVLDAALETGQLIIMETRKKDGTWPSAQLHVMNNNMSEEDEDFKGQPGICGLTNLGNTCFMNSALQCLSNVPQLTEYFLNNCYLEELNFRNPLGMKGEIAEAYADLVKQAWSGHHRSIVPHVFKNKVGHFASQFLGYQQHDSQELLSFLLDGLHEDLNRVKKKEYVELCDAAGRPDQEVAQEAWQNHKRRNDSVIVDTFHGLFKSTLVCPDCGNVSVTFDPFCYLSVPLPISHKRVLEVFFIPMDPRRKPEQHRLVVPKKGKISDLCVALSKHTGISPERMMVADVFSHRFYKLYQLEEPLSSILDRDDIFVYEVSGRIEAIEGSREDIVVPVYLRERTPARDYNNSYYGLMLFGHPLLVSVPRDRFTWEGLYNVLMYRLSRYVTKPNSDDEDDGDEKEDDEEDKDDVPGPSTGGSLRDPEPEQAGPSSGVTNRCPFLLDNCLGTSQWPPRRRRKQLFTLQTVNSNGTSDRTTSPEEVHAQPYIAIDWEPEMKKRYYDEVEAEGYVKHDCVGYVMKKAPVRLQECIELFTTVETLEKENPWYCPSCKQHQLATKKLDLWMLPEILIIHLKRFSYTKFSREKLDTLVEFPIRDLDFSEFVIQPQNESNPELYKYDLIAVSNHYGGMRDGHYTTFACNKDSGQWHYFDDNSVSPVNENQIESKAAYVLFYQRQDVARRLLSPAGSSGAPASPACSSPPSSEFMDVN
UniProt O95816: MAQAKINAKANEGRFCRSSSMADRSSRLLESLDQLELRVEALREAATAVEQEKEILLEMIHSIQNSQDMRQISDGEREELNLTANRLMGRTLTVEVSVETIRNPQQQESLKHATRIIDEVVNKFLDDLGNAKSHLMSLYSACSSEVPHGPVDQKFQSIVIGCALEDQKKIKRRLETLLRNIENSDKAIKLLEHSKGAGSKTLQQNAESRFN
UniProt P67775: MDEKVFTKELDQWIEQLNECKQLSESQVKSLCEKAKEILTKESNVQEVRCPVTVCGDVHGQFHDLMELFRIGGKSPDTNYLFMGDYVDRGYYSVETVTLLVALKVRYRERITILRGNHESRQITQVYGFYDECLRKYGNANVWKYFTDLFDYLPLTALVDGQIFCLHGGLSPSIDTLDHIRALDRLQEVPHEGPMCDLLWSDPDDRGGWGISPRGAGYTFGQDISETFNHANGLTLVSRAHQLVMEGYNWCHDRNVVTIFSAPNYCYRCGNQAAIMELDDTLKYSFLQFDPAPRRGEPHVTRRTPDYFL
UniProt Q7Z739: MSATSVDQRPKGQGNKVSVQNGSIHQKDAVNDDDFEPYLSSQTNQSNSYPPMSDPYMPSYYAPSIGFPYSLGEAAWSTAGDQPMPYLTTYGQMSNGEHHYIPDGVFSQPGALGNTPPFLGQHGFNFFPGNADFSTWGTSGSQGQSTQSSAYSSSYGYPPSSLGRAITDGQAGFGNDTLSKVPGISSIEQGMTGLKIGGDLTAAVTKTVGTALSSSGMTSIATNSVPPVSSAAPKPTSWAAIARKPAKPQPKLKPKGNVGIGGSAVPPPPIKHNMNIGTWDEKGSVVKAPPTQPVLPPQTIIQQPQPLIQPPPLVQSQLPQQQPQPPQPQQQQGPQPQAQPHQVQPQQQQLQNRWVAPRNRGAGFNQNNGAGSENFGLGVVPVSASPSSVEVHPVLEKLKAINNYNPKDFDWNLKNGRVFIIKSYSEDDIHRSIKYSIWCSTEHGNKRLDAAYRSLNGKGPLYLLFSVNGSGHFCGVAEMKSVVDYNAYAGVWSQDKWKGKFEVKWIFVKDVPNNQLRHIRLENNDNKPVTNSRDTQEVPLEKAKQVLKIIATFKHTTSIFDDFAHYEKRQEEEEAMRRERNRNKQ
UniProt O95831: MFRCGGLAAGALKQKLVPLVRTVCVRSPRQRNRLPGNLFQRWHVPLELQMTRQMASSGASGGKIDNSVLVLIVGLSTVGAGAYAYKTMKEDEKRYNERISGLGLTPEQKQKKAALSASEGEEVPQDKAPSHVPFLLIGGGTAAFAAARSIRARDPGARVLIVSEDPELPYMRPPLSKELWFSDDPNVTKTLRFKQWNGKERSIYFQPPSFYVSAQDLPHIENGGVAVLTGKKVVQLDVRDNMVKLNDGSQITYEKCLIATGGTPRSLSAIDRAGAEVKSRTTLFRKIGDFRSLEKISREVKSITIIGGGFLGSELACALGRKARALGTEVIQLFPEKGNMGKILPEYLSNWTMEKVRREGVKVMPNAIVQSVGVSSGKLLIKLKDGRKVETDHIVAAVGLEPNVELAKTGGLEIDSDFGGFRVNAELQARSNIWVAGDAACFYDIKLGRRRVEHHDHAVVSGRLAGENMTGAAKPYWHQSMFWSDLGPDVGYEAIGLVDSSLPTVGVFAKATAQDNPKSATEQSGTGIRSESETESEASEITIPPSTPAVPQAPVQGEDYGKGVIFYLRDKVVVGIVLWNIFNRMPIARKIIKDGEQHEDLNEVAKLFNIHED
UniProt P62714: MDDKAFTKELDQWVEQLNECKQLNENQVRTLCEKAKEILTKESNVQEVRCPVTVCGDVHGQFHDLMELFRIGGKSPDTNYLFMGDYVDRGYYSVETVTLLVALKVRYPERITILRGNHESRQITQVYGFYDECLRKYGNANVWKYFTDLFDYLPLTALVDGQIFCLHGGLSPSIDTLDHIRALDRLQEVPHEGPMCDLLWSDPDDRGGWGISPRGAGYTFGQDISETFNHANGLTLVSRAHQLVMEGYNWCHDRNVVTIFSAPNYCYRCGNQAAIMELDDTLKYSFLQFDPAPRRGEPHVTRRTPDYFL
UniProt P31040, residues 43-664: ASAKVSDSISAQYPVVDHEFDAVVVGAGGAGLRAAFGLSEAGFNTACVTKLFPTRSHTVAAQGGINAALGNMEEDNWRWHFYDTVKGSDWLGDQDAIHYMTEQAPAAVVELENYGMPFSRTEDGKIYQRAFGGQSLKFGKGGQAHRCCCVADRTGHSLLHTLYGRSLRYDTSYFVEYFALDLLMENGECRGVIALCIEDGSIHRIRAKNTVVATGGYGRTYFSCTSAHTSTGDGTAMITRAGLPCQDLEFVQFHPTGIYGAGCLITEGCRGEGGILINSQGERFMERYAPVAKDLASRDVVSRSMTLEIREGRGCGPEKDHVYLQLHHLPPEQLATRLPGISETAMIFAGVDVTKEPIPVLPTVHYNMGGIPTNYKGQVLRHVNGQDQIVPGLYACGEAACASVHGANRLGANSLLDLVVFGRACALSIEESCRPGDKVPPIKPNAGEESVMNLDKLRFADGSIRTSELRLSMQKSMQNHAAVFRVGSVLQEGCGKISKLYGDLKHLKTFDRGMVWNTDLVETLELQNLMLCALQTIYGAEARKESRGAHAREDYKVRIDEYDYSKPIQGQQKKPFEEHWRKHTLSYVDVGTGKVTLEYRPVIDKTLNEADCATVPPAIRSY

B1: U3 small nucleolar RNA-interacting protein (protein, UniProt O43818 1-475)
chain: MSATAAARKRGKPASGAGAGAGAGKRRRKADSAGDRGKSKGGGKMNEEISSDSESESLAPRKPEEEEEEELEETAQEKKLRLAKLYLEQLRQQEEEKAEARAFEEDQVAGRLKEDVLEQRGRLQKLVAKEIQAPASADIRVLRGHQLSITCLVVTPDDSAIFSAAKDCSIIKWSVESGRKLHVIPRAKKGAEGKPPGHSSHVLCMAISSDGKYLASGDRSKLILIWEAQSCQHLYTFTGHRDAVSGLAFRRGTHQLYSTSHDRSVKVWNVAENSYVETLFGHQDAVAALDALSRECCVTAGGRDGTVRVWKIPEESQLVFYGHQGSIDCIHLINEEHMVSGADDGSVALWGLSKKRPLALQREAHGLRGEPGLEQPFWISSVAALLNTDLVATGSHSSCVRLWQCGEGFRQLDLLCDIPLVGFINSLKFSSSGDFLVAGVGQEHRLGRWWRIKEARNSVCIIPLRRVPVPPAAGS
B2: Nucleolar protein 6 (protein, UniProt Q9H6R4 1-1146)
chain: MGPAPAGEQLRGATGEPEVMEPALEGTGKEGKKASSRKRTLAEPPAKGLLQPVKLSRAELYKEPTNEELNRLRETEILFHSSLLRLQVEELLKEVRLSEKKKDRIDAFLREVNQRVVRVPSVPETELTDQAWLPAGVRVPLHQVPYAVKGCFRFLPPAQVTVVGSYLLGTCIRPDINVDVALTMPREILQDKDGLNQRYFRKRALYLAHLAHHLAQDPLFGSVCFSYTNGCHLKPSLLLRPRGKDERLVTVRLHPCPPPDFFRPCRLLPTKNNVRSAWYRGQSPAGDGSPEPPTPRYNTWVLQDTVLESHLQLLSTILSSAQGLKDGVALLKVWLRQRELDKGQGGFTGFLVSMLVVFLVSTRKIHTTMSGYQVLRSVLQFLATTDLTVNGISLCLSSDPSLPALADFHQAFSVVFLDSSGHLNLCADVTASTYHQVQHEARLSMMLLDSRADDGFHLLLMTPKPMIRAFDHVLHLRPLSRLQAACHRLKLWPELQDNGGDYVSAALGPLTTLLEQGLGARLNLLAHSRPPVPEWDISQDPPKHKDSGTLTLGLLLRPEGLTSVLELGPEADQPEAAKFRQFWGSRSELRRFQDGAIREAVVWEAASMSQKRLIPHQVVTHLLALHADIPETCVHYVGGPLDALIQGLKETSSTGEEALVAAVRCYDDLSRLLWGLEGLPLTVSAVQGAHPVLRYTEVFPPTPVRPAFSFYETLRERSSLLPRLDKPCPAYVEPMTVVCHLEGSGQWPQDAEAVQRVRAAFQLRLAELLTQQHGLQCRATATHTDVLKDGFVFRIRVAYQREPQILKEVQSPEGMISLRDTAASLRLERDTRQLPLLTSALHGLQQQHPAFSGVARLAKRWVRAQLLGEGFADESLDLVAAALFLHPEPFTPPSSPQVGFLRFLFLVSTFDWKNNPLFVNLNNELTVEEQVEIRSGFLAARAQLPVMVIVTPQDRKNSVWTQDGPSAQILQQLVVLAAEALPMLEKQLMDPRGPGDIRTVFRPPLDIYDVLIRLSPRHIPRHRQAVDSPAASFCRGLLSQPGPSSLMPVLGYDPPQLYLTQLREAFGDLALFFYDQHGGEVIGVLWKPTSFQPQPFKASSTKGRMVMSRGGELVMVPNVEAILEDFAVLGEGLVQTVEARSERWTV
B3: Ataxin 2-like, isoform CRA_e (protein, UniProt Q8WWM7 1-1075)
chain: MLKPQPLQQPSQPQQPPPTQQAVARRPPGGTSPPNGGLPGPLATSAAPPGPPAAASPCLGPVAAAGSGLRRGAEGILAPQPPPPQQHQERPGAAAIGSARGQSTGKGPPQSPVFEGVYNNSRMLHFLTAVVGSTCDVKVKNGTTYEGIFKTLSSKFELAVDAVHRKASEPAGGPRREDIVDTMVFKPSDVMLVHFRNVDFNYATKDKFTDSAIAMNSKVNGEHKEKVLQRWEGGDSNSDDYDLESDMSNGWDPNEMFKFNEENYGVKTTYDSSLSSYTVPLEKDNSEEFRQRELRAAQLAREIESSPQYRLRIAMENDDGRTEEEKHSAVQRQGSGRESPSLASREGKYIPLPQRVREGPRGGVRCSSSRGGRPGLSSLPPRGPHHLDNSSPGPGSEARGINGGPSRMSPKAQRPLRGAKTLSSPSNRPSGETSVPPPPAVGRMYPPRSPKSAAPAPISASCPEPPIGSAVPTSSASIPVTSSVSDPGVGSISPASPKISLAPTDVKELSTKEPGRTLEPQELARIAGKVPGLQNEQKRFQLEELRKFGAQFKLQPSSSPENSLDPFPPRILKEEPKGKEKEVDGLLTSEPMGSPVSSKTESVSDKEDKPPLAPSGGTEGPEQPPPPCPSQTGSPPVGLIKGEDKDEGPVAEQVKKSTLNPNAKEFNPTKPLLSVNKSTSTPTSPGPRTHSTPSIPVLTAGQSGLYSPQYISYIPQIHMGPAVQAPQMYPYPVSNSVPGQQGKYRGAKGSLPPQRSDQHQPASAPPMMQAAAAAGPPLVAATPYSSYIPYNPQQFPGQPAMMQPMAHYPSQPVFAPMLQSNPRMLTSGSHPQAIVSSSTPQYPSAEQPTPQALYATVHQSYPHHATQLHAHQPQPATTPTGSQPQSQHAAPSPVQHQAGQAPHLGSGQPQQNLYHPGALTGTPPSLPPGPSAQSPQSSFPQPAAVYAIHHQQLPHGFTNMAHVTQAHVQTGITAAPPPHPGAPHPPQVMLLHPPQSHGGPPQGAVPQSGVPALSASTPSPYPYIGHPQGEQPGQAPGFPGGADDRIREFSLAGGIWHGRAEGLQVGQDARVLGGE
B4: Biotin—protein ligase (protein, UniProt P50747 1-726)
chain: MEDRLHMDNGLVPQKIVSVHLQDSTLKEVKDQVSNKQAQILEPKPEPSLEIKPEQDGMEHVGRDDPKALGEEPKQRRGSASGSEPAGDSDRGGGPVEHYHLHLSSCHECLELENSTIESVKFASAENIPDLPYDYSSSLESVADETSPEREGRRVNLTGKAPNILLYVGSDSQEALGRFHEVRSVLADCVDIDSYILYHLLEDSALRDPWTDNCLLLVIATRESIPEDLYQKFMAYLSQGGKVLGLSSSFTFGGFQVTSKGALHKTVQNLVFSKADQSEVKLSVLSSGCRYQEGPVRLSPGRLQGHLENEDKDRMIVHVPFGTRGGEAVLCQVHLELPPSSNIVQTPEDFNLLKSSNFRRYEVLREILTTLGLSCDMKQVPALTPLYLLSAAEEIRDPLMQWLGKHVDSEGEIKSGQLSLRFVSSYVSEVEITPSCIPVVTNMEAFSSEHFNLEIYRQNLQTKQLGKVILFAEVTPTTMRLLDGLMFQTPQEMGLIVIAARQTEGKGRGGNVWLSPVGCALSTLLISIPLRSQLGQRIPFVQHLMSVAVVEAVRSIPEYQDINLRVKWPNDIYYSDLMKIGGVLVNSTLMGETFYILIGCGFNVTNSNPTICINDLITEYNKQHKAELKPLRADYLIARVVTVLEKLIKEFQDKGPNSVLPLYYRYWVHSGQQVHLGSAEGPKVSIVGLDDSGFLQVHQEGGEVVTVHPDGNSFDMLRNLILPKRR
B5: E3 ubiquitin-protein ligase RNF220 (protein, UniProt Q5VTB9 1-566)
chain: MDLHRAAFKMENSSYLPNPLASPALMVLASTAEASRDASIPCQQPRPFGVPVSVDKDVHIPFTNGSYTFASMYHRQGGVPGTFANRDFPPSLLHLHPQFAPPNLDCTPISMLNHSGVGAFRPFASTEDRESYQSAFTPAKRLKNCHDTESPHLRFSDADGKEYDFGTQLPSSSPGSLKVDDTGKKIFAVSGLISDREASSSPEDRNDRCKKKAAALFDSQAPICPICQVLLRPSELQEHMEQELEQLAQLPSSKNSLLKDAMAPGTPKSLLLSASIKREGESPTASPHSSATDDLHHSDRYQTFLRVRANRQTRLNARIGKMKRRKQDEGQREGSCMAEDDAVDIEHENNNRFEEYEWCGQKRIRATTLLEGGFRGSGFIMCSGKENPDSDADLDVDGDDTLEYGKPQYTEADVIPCTGEEPGEAKEREALRGAVLNGGPPSTRITPEFSKWASDEMPSTSNGESSKQEAMQKTCKNSDIEKITEDSAVTTFEALKARVRELERQLSRGDRYKCLICMDSYSMPLTSIQCWHVHCEECWLRTLGAKKLCPQCNTITAPGDLRRIYL
B6: BTB/POZ domain-containing protein 9 (protein, UniProt Q96Q07 1-612)
chain: MSNSHPLRPFTAVGEIDHVHILSEHIGALLIGEEYGDVTFVVEKKRFPAHRVILAARCQYFRALLYGGMRESQPEAEIPLQDTTAEAFTMLLKYIYTGRATLTDEKEEVLLDFLSLAHKYGFPELEDSTSEYLCTILNIQNVCMTFDVASLYSLPKLTCMCCMFMDRNAQEVLSSEGFLSLSKTALLNIVLRDSFAAPEKDIFLALLNWCKHNSKENHAEIMQAVRLPLMSLTELLNVVRPSGLLSPDAILDAIKVRSESRDMDLNYRGMLIPEENIATMKYGAQVVKGELKSALLDGDTQNYDLDHGFSRHPIDDDCRSGIEIKLGQPSIINHIRILLWDRDSRSYSYFIEVSMDELDWVRVIDHSQYLCRSWQKLYFPARVCRYIRIVGTHNTVNKIFHIVAFECMFTNKTFTLEKGLIVPMENVATIADCASVIEGVSRSRNALLNGDTKNYDWDSGYTCHQLGSGAIVVQLAQPYMIGSIRLLLWDCDDRSYSYYVEVSTNQQQWTMVADRTKVSCKSWQSVTFERQPASFIRIVGTHNTANEVFHCVHFECPEQQSSQKEENSEESGTGDTSLAGQQLDSHALRAPSGSSLPSSPGSNSRSPNRQHQ

Target: T7-2xStrep-JCV Sm t-Ag (JC virus (JCV)) (UniProt P03083)
Experiment: affinity purification with mass spectrometry

Row | Molecule | binding
1 | Protein phosphatase 2 (formerly 2A), regulatory subunit A (PR 65) (from UniProt P30153 1-589) | binds
2 | Clathrin interactor 1 isoform 1 (from UniProt Q14677 1-625) | binds
3 | Ubiquitin carboxyl-terminal hydrolase 11 (from UniProt P51784 1-963) | binds
4 | BAG family molecular chaperone regulator 2 (from UniProt O95816 1-211) | binds
5 | Serine/threonine-protein phosphatase 2A catalytic subunit alpha isoform (from UniProt P67775 1-309) | binds
6 | YTH domain family, member 3, isoform CRA_a (from UniProt Q7Z739 1-585) | binds
7 | Apoptosis-inducing factor 1 (from UniProt O95831) | binds
8 | Serine/threonine-protein phosphatase 2A catalytic subunit beta isoform (from UniProt P62714 1-309) | binds
9 | Succinate Dehydrogenase Complex Flavoprotein Subunit A (from UniProt P31040 43-664) | binds
10 | B1 | binds
11 | B2 | binds
12 | B3 | binds
13 | B4 | binds
14 | B5 | binds
15 | B6 | binds

These are yes or no findings as the source states them, for the method shown. Binding seen in cells or lysates may run through a third protein. These calls come from enrichment with a bait or labelling near it, and not all partners need be listed.
